# Measured values taken from the supplement of paper PMC10849652.
# Protein sequences, listed by entry. Tags and fused reporters are not part of them. Lines headed by an entry give the natural chain unless they say otherwise; changes in a name come on top.
# UniProt Q8ND04: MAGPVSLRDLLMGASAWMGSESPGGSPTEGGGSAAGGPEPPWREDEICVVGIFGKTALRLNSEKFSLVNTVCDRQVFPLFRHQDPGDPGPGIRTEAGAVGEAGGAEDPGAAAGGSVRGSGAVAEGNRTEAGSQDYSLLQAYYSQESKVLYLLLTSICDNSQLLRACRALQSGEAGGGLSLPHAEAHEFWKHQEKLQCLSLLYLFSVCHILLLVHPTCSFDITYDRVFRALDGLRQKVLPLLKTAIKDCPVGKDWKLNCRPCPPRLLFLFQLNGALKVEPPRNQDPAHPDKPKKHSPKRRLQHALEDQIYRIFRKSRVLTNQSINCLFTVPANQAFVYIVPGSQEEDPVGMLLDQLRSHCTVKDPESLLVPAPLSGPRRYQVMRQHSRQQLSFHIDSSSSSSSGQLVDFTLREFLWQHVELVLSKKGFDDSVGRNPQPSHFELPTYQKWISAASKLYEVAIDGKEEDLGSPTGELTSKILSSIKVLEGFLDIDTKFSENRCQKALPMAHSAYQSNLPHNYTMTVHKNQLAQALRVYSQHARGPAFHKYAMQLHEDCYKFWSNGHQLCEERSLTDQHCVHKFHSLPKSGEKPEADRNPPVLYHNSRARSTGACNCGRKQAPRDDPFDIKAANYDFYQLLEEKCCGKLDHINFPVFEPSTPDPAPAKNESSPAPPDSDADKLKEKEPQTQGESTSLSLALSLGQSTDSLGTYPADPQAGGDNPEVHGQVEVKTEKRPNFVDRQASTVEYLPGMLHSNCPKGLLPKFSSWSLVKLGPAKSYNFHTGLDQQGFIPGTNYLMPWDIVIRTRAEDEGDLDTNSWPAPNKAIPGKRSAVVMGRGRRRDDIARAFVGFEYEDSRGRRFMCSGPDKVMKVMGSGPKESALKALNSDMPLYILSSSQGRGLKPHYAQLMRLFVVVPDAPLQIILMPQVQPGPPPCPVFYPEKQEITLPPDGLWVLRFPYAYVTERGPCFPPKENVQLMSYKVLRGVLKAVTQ
# UniProt O95219: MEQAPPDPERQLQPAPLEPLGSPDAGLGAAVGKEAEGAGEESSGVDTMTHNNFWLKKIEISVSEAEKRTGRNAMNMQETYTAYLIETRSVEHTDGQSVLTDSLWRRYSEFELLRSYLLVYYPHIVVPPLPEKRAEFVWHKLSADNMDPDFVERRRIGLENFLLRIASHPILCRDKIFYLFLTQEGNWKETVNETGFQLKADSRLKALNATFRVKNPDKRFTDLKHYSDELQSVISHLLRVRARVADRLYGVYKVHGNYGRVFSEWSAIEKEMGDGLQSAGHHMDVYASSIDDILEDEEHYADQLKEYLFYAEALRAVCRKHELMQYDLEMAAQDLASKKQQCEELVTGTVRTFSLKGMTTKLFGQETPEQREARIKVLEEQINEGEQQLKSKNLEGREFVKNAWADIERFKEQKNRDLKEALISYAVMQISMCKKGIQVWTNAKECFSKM
# UniProt B2RUZ4: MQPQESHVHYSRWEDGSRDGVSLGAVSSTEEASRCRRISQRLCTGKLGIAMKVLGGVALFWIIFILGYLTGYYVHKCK
# UniProt Q9Y343: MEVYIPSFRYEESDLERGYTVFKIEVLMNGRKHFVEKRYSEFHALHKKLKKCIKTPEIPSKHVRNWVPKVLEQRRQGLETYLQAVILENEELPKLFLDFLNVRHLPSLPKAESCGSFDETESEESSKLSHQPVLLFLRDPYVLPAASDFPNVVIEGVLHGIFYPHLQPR
# UniProt Q8NDV3: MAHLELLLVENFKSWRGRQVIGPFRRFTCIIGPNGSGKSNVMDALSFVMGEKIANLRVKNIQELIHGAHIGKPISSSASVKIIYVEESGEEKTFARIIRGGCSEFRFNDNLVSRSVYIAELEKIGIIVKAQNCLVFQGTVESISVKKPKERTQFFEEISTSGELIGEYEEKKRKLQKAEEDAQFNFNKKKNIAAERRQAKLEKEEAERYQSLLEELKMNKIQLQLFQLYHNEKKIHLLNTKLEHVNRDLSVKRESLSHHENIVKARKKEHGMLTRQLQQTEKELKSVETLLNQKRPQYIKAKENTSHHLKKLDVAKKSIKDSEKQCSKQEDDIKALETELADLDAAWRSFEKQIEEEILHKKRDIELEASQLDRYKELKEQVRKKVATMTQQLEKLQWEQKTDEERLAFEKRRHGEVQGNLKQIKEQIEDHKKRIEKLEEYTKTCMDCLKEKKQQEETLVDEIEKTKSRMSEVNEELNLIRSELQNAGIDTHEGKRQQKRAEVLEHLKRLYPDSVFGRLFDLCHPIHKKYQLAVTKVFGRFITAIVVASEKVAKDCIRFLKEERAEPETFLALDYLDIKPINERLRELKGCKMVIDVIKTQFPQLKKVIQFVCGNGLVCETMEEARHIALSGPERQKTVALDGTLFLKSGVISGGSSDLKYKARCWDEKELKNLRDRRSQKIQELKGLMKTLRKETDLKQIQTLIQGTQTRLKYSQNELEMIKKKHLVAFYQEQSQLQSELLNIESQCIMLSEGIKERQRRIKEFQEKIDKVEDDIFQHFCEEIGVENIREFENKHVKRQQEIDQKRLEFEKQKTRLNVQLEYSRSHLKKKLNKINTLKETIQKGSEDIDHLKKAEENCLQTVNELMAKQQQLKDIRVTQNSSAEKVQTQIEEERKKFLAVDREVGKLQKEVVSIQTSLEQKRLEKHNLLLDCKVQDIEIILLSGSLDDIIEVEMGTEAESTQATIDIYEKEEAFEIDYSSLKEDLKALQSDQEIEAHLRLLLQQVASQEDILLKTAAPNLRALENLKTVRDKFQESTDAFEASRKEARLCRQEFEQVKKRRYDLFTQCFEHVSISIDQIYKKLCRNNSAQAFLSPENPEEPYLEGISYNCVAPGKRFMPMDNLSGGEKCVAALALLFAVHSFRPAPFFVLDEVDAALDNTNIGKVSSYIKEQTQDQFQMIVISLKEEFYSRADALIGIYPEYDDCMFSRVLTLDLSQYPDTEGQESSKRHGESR
# UniProt Q96RF0: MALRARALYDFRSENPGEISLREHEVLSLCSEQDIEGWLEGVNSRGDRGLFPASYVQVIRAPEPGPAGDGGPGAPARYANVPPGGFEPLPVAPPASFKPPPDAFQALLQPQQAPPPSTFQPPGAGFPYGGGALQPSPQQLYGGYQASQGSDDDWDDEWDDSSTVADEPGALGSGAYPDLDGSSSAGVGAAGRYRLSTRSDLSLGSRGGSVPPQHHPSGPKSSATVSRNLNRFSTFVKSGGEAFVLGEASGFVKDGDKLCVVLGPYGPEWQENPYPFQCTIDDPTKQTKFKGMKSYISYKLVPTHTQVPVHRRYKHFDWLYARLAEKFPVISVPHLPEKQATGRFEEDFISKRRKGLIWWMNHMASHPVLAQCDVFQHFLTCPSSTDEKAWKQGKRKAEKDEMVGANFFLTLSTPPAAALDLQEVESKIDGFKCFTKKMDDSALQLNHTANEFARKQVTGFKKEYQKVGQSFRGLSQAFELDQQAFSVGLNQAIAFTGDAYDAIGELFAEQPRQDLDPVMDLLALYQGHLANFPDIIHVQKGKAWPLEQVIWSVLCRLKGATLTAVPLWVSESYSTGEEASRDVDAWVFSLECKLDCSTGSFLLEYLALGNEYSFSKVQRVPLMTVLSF
# UniProt O00161: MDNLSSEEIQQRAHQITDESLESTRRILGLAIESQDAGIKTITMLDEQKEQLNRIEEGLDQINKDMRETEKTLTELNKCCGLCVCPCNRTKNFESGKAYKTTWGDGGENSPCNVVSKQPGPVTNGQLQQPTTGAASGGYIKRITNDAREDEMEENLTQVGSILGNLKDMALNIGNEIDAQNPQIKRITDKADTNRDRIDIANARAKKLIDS
# UniProt Q5SQN1: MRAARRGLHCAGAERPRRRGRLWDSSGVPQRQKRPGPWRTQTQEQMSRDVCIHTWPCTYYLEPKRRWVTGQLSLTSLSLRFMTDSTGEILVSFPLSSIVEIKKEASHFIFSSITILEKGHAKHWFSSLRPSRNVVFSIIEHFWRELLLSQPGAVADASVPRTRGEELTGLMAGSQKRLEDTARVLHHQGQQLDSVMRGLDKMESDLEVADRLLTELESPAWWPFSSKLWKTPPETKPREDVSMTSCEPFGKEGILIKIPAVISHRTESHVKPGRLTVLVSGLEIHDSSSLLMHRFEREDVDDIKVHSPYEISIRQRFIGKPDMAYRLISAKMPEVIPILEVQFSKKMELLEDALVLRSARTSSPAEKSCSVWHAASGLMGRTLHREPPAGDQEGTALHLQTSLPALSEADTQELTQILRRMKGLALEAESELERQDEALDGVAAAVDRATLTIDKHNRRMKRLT
# UniProt P35716: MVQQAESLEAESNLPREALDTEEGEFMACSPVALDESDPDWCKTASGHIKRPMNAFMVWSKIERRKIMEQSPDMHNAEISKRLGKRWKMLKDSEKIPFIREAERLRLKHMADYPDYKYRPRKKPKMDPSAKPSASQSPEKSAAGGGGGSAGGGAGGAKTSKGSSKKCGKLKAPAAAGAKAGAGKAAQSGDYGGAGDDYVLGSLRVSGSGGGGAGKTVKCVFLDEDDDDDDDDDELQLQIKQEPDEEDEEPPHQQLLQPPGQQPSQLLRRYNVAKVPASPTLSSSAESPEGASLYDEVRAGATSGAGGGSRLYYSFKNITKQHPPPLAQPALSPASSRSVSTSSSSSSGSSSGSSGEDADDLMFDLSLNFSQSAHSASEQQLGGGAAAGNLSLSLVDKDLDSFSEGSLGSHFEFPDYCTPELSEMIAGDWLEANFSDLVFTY
# UniProt Q3SY56: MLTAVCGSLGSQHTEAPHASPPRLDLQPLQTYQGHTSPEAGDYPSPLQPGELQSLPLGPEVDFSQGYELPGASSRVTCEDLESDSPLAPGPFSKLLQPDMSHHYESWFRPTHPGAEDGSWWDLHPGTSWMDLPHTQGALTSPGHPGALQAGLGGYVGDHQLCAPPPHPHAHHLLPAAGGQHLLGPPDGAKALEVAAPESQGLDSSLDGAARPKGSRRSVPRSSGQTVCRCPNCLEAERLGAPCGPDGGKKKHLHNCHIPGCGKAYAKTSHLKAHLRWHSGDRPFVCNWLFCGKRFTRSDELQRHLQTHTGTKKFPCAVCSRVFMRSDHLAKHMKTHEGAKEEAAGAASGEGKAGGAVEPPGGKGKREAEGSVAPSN
# UniProt Q53HV7: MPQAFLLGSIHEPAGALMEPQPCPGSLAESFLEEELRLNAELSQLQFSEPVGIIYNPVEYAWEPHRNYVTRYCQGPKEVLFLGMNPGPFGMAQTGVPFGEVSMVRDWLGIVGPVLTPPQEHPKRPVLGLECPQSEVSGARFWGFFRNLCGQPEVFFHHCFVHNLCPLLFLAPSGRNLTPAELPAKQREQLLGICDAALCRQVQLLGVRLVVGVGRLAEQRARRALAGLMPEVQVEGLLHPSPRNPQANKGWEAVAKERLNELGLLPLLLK
# UniProt Q92484: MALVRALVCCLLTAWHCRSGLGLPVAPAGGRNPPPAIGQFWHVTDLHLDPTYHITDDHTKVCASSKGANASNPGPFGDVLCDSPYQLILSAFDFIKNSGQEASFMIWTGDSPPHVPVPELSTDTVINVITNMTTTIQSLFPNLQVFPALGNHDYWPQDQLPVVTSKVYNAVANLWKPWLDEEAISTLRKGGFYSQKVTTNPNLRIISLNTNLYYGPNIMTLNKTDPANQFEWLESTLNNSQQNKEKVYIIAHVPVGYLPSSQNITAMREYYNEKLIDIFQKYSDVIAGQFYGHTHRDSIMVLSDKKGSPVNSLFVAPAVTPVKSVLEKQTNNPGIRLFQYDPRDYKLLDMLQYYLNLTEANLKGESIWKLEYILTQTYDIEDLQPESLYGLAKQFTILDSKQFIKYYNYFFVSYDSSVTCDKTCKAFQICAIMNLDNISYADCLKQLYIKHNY
# UniProt P08294: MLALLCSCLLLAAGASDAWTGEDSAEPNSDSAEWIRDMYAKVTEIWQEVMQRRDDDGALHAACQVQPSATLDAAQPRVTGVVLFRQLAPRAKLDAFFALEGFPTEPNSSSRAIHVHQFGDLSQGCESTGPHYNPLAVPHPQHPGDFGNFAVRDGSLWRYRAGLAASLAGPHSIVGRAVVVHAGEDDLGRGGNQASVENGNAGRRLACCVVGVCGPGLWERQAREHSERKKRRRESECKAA
# UniProt Q9H4I9: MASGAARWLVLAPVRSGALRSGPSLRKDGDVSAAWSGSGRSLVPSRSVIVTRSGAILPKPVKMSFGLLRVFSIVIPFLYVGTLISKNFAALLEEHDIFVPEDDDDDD
# UniProt Q92485: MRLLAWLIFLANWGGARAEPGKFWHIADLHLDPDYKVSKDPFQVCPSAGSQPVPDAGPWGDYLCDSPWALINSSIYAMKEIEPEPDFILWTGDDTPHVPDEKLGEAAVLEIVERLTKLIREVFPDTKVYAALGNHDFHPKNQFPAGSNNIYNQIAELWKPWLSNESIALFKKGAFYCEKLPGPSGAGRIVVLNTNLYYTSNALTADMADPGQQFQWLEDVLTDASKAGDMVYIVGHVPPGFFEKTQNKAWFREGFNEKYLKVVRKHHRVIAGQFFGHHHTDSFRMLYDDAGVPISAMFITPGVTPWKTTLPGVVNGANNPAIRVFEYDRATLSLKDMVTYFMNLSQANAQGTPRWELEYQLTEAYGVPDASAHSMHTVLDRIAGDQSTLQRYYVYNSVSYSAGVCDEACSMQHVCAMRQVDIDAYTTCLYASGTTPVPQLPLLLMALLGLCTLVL
# The list shows a part of the results.
# Experiments:
# Assay in all cases: log2 fold change, soluble protein after heating vs DMSO (PISA); higher = thermal stabilisation; K562 lysate, 10 uM; active = over 0.2 and 3.5 SD of the protein, either way, in both replicates (recomputed)
# lapatinib = compound: CS(=O)(=O)CCNCc1ccc(-c2ccc3ncnc(Nc4ccc(OCc5cccc(F)c5)c(Cl)c4)c3c2)o1 [lapatinib]
# Procedure, shortened: (§1)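 K562 pellets were dounce-homogenised in PBS pH 7.4 containing 1 mM MgCl2, and the crude extract, at 1 mg/mL protein, was exposed to 10 μM compound for 30 min. Aliquots were heated for 3 min across 48°C-58°C, pooled, brought to 0.5% NP-40 at 4°C and spun at 21,000xg for 90 min, with the supernatant taken as soluble protein. TMTpro 16plex LC-MS/MS with equalised channel sums quantified that protein. Values are log-two fold changes in thermal stability relative to solvent controls, taken from duplicates.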
# pictilisib = compound: CS(=O)(=O)N1CCN(Cc2cc3nc(-c4cccc5[nH]ncc45)nc(N4CCOCC4)c3s2)CC1 [pictilisib]
# Procedure, shortened: as §1
# crizotinib = compound: C[C@@H](Oc1cc(-c2cnn(C3CCNCC3)c2)cnc1N)c1c(Cl)ccc(F)c1Cl [crizotinib]
# Procedure, shortened: as §1
# [1] = compound: C[C@H](C1=CC=C(C=C1)C(=O)NC2=C3C=CNC3=NC=C2)N
# Procedure, shortened: as §1
# duvelisib = compound: C[C@H](Nc1ncnc2nc[nH]c12)c1cc2cccc(Cl)c2c(=O)n1-c1ccccc1 [duvelisib]
# Procedure, shortened: as §1
# gandotinib = compound: Cc1cc(Nc2cc(CN3CCOCC3)c3nc(C)c(Cc4ccc(Cl)cc4F)n3n2)n[nH]1 [gandotinib]
# Procedure, shortened: as §1
# tozasertib = compound: Cc1cc(Nc2cc(N3CCN(C)CC3)nc(Sc3ccc(NC(=O)C4CC4)cc3)n2)n[nH]1 [tozasertib]
# Procedure, shortened: as §1
# doramapimod = compound: Cc1ccc(-n2nc(C(C)(C)C)cc2NC(=O)Nc2ccc(OCCN3CCOCC3)c3ccccc23)cc1 [doramapimod]
# Procedure, shortened: as §1
# bafetinib = compound: Cc1ccc(NC(=O)c2ccc(CN3CC[C@H](N(C)C)C3)c(C(F)(F)F)c2)cc1Nc1nccc(-c2cncnc2)n1 [bafetinib]
# Procedure, shortened: as §1
# [2] = compound: Cc1cccc(CC(=O)N2CCc3c2ccc(-c2cn(C)c4ncnc(N)c24)c3F)n1
# Procedure, shortened: as §1
# nilotinib = compound: Cc1cn(-c2cc(NC(=O)c3ccc(C)c(Nc4nccc(-c5cccnc5)n4)c3)cc(C(F)(F)F)c2)cn1 [nilotinib]
# Procedure, shortened: as §1
# [3] = compound: Cc1nc(Nc2n[nH]c3c2CN(C(=O)N[C@H](CN(C)C)c2ccccc2)C3(C)C)c2sccc2n1
# Procedure, shortened: as §1
# dasatinib = compound: Cc1nc(Nc2ncc(C(=O)Nc3c(C)cccc3Cl)s2)cc(N2CCN(CCO)CC2)n1 [dasatinib]
# Procedure, shortened: as §1
# [4] = compound: Cc1ncc(-c2ccnc(Nc3ccc(S(C)(=O)=O)cc3)n2)n1C(C)C
# Procedure, shortened: as §1
# [5] = compound: Cn1cc(-c2ccc3c(c2)CCN3C(=O)Cc2cccc(C(F)(F)F)c2)c2c(N)ncnc21
# Procedure, shortened: as §1
# quisinostat = compound: Cn1cc(CNCC2CCN(c3ncc(C(=O)NO)cn3)CC2)c2ccccc21 [quisinostat]
# Procedure, shortened: as §1
# tipifarnib = compound: Cn1cncc1[C@@](N)(c1ccc(Cl)cc1)c1ccc2c(c1)c(-c1cccc(Cl)c1)cc(=O)n2C [tipifarnib]
# Procedure, shortened: as §1
# [6] = compound: NC(=O)Nc1cc(-c2cccc(F)c2)sc1C(=O)N[C@H]1CCCNC1
# Procedure, shortened: as §1
# [7] = compound: NC(=O)c1cnc(N[C@@H]2CCCC[C@@H]2N)nc1Nc1cccc(-n2nccn2)c1
# Procedure, shortened: as §1
# [8] = compound: NC1(c2ccc(-c3nc4ccn5c(=O)[nH]nc5c4cc3-c3ccccc3)cc2)CCC1
# Procedure, shortened: as §1
Target,log2 fold change (lapatinib),log2 fold change (pictilisib),log2 fold change (crizotinib),log2 fold change [1],log2 fold change (duvelisib),log2 fold change (gandotinib),log2 fold change (tozasertib),log2 fold change (doramapimod),log2 fold change (bafetinib),log2 fold change [2],log2 fold change (nilotinib),log2 fold change [3],log2 fold change (dasatinib),log2 fold change [4],log2 fold change [5],log2 fold change (quisinostat),log2 fold change (tipifarnib),log2 fold change [6],log2 fold change [7],log2 fold change [8]
SMG8 isoform 2 (UniProt Q8ND04),inactive: 0.008,inactive: 0.023,inactive: -0.051,inactive: 0.099,inactive: 0.001,inactive: -0.111,inactive: -0.036,inactive: 0.006,inactive: -0.038,inactive: -0.056,inactive: 0.025,inactive: 0.013,inactive: -0.037,inactive: -0.027,inactive: 0.064,inactive: 0.032,inactive: 0.02,inactive: 0.032,inactive: 0.007,inactive: 0.002
SNX4 (UniProt O95219),–,inactive: 0.019,inactive: -0.013,inactive: -0.003,inactive: -0.085,inactive: -0.029,inactive: 0.001,inactive: 0.054,inactive: 0.009,inactive: 0.005,inactive: 0.066,inactive: -0.047,inactive: -0.012,inactive: -0.004,inactive: 0.033,inactive: 0.065,inactive: 0.07,inactive: -0.027,–,inactive: 0.048
SMIM1 (UniProt B2RUZ4),inactive: 0.098,inactive: -0.028,inactive: -0.106,inactive: 0.121,–,inactive: 0.106,inactive: -0.019,inactive: 0.034,inactive: -0.021,inactive: 0.011,inactive: 0.056,inactive: 0.05,–,inactive: 0.195,–,inactive: 0.168,inactive: 0.039,inactive: -0.055,inactive: -0.188,active: -0.418
SNX24 (UniProt Q9Y343),–,inactive: -0.142,inactive: 0.006,inactive: -0.01,inactive: -0.052,inactive: -0.045,inactive: -0.006,inactive: 0.047,inactive: -0.061,inactive: 0.075,inactive: -0.031,inactive: -0.028,inactive: 0.003,inactive: -0.041,inactive: -0.027,inactive: 0.128,inactive: -0.017,inactive: -0.025,–,inactive: 0.028
SMC1B isoform 3 (UniProt Q8NDV3),inactive: 0,inactive: -0.037,inactive: -0.019,–,inactive: 0.015,–,inactive: 0.26,inactive: -0.036,inactive: -0.093,–,inactive: 0.022,inactive: -0.041,inactive: -0.004,inactive: 0.023,inactive: 0.016,inactive: 0.004,inactive: 0.008,inactive: -0.014,inactive: -0.005,inactive: -0.055
SNX2 isoform 2 (UniProt O60749),inactive: -0.082,inactive: -0.083,inactive: -0.172,–,inactive: -0.045,–,inactive: -0.038,inactive: -0.111,inactive: -0.086,–,inactive: 0.129,inactive: -0.06,inactive: -0.077,inactive: 0.247,inactive: -0.011,inactive: -0.298,inactive: 0.01,inactive: 0.099,inactive: -0.05,inactive: -0.088
SMPD2 (UniProt O60906),inactive: 0.015,–,–,inactive: 0.106,inactive: 0.107,inactive: -0.051,inactive: -0.031,–,–,inactive: 0.03,–,–,inactive: -0.169,–,inactive: -0.102,–,–,–,inactive: 0.029,inactive: 0.069
SNX18 isoform 2 (UniProt Q96RF0),inactive: 0.176,–,inactive: 0.036,inactive: -0.11,–,inactive: -0.032,inactive: 0.02,inactive: 0.122,–,inactive: 0.031,inactive: 0.21,inactive: -0.131,–,inactive: -0.076,–,inactive: 0.058,inactive: 0.064,inactive: 0.044,inactive: -0.04,inactive: 0.132
SMARCC2 isoform 3 (UniProt Q8TAQ2),inactive: 0.131,inactive: 0.018,inactive: 0.176,–,inactive: -0.015,–,–,inactive: -0.064,inactive: -0.238,–,inactive: 0.009,inactive: 0.045,inactive: 0.087,inactive: 0.148,inactive: -0.137,inactive: -0.125,inactive: 0.104,inactive: 0.079,inactive: 0.066,–
SNAP23 isoform 2 (UniProt O00161),inactive: 0.075,–,–,inactive: 0.188,–,inactive: -0.054,inactive: -0.185,–,–,inactive: -0.163,inactive: 0.011,inactive: -0.041,–,inactive: -0.054,–,–,inactive: -0.016,–,inactive: 0.046,inactive: -0.116
SNAP47 (UniProt Q5SQN1),–,inactive: -0.061,inactive: -0.035,inactive: -0.243,inactive: -0.028,inactive: 0.165,inactive: -0.17,inactive: 0.046,inactive: 0.017,inactive: 0.051,inactive: -0.009,inactive: -0.022,inactive: -0.036,inactive: 0,inactive: 0.053,inactive: -0.041,inactive: -0.004,inactive: 0.027,–,inactive: 0.037
SMU1 isoform 2 (UniProt Q2TAY7),inactive: -0.063,inactive: -0.057,–,inactive: -0.63,–,inactive: 0.202,inactive: 0.039,–,inactive: -0.292,inactive: 0.369,inactive: -0.126,inactive: 0.068,–,inactive: 0.185,–,–,inactive: -0.044,–,inactive: 0.075,inactive: -0.081
SOX11 (UniProt P35716),inactive: -0.118,–,inactive: 0.006,–,–,–,–,inactive: -0.243,–,–,–,–,–,–,–,inactive: -0.011,–,inactive: -0.154,inactive: -0.217,–
SMYD3 (UniProt Q9H7B4),inactive: 0.017,inactive: -0.018,inactive: -0.146,–,inactive: 0.062,–,inactive: 0.023,inactive: 0.053,inactive: -0.062,–,inactive: 0.004,inactive: 0.022,inactive: -0.101,inactive: 0.01,inactive: -0.029,inactive: -0.056,inactive: 0.031,inactive: 0.038,inactive: 0.036,inactive: -0.051
SPAG1 (UniProt Q07617),inactive: -0.058,inactive: 0.17,inactive: 0,–,–,–,–,inactive: -0.025,inactive: -0.265,–,–,–,–,–,–,inactive: -0.037,–,inactive: 0.007,inactive: 0.164,–
SP6 (UniProt Q3SY56),inactive: 0.06,–,inactive: -0.049,inactive: -0.317,inactive: -0.033,inactive: -0.092,inactive: 0.018,inactive: -0.026,–,inactive: 0.21,inactive: 0.464,inactive: 0.058,inactive: 0.094,inactive: 0.077,inactive: -0.077,inactive: -0.01,inactive: -0.16,inactive: 0.042,inactive: -0.054,inactive: 0.064
SMUG1 (UniProt Q53HV7),inactive: -0.072,inactive: -0.068,–,inactive: 0.038,inactive: -0.014,inactive: 0.076,inactive: 0.046,–,inactive: 0.023,inactive: -0.046,inactive: -0.031,inactive: 0.003,inactive: 0.051,inactive: -0.064,inactive: -0.018,–,inactive: -0.05,–,inactive: 0.03,inactive: 0.001
SMPDL3A (UniProt Q92484),inactive: 0.058,–,–,–,–,–,inactive: -0.057,–,–,–,–,–,–,–,–,–,–,–,inactive: -0.012,–
SOD3 (UniProt P08294),inactive: -0.242,inactive: -0.019,–,inactive: 0.003,–,inactive: 0.071,inactive: 0.084,–,inactive: 0.336,inactive: 0.14,–,–,–,–,–,–,–,–,inactive: 0.196,–
SNRPD2 (UniProt K7EJB5),inactive: 0.005,–,inactive: -0.202,–,inactive: 0.014,–,inactive: 0.051,inactive: 0.105,–,–,inactive: -0.081,inactive: 0.005,inactive: -0.026,inactive: -0.094,inactive: -0.084,inactive: -0.267,inactive: -0.075,inactive: -0.082,inactive: 0.044,inactive: 0
SNRPN isoform 2 (UniProt P63162),inactive: -0.003,–,inactive: -0.075,inactive: 0.097,–,inactive: 0.093,inactive: 0.025,inactive: -0.021,–,inactive: -0.124,–,–,–,–,–,inactive: -0.025,–,inactive: 0.107,inactive: 0.1,inactive: -0.029
SMDT1 (UniProt Q9H4I9),inactive: -0.069,inactive: 0.036,–,inactive: -0.075,inactive: -0.013,inactive: 0.04,–,–,inactive: -0.075,inactive: 0.08,–,–,inactive: 0.006,–,inactive: 0.022,–,–,–,inactive: -0.087,inactive: 0.072
SMPDL3B (UniProt Q92485),inactive: 0.09,–,inactive: 0.003,inactive: -0.326,inactive: 0.083,inactive: -0.196,inactive: -0.067,inactive: -0.115,–,inactive: 0.004,–,–,inactive: -0.034,–,inactive: 0.206,inactive: 0.055,–,inactive: -0.075,inactive: 0.037,–
SMIM15 (UniProt Q7Z3B0),inactive: -0.042,–,inactive: 0.036,inactive: -0.042,inactive: 0.063,inactive: 0.019,inactive: -0.039,inactive: -0.041,–,inactive: -0.044,inactive: 0.109,inactive: -0.15,inactive: -0.037,inactive: 0.065,inactive: -0.199,inactive: 0.017,inactive: -0.078,inactive: 0.036,inactive: -0.025,inactive: -0.027

# Some of the entries above in a different format:
Target	log2 fold change (lapatinib)	log2 fold change (pictilisib)	log2 fold change (crizotinib)	log2 fold change [1]	log2 fold change (duvelisib)	log2 fold change (gandotinib)	log2 fold change (tozasertib)	log2 fold change (doramapimod)	log2 fold change (bafetinib)	log2 fold change [2]	log2 fold change (nilotinib)	log2 fold change [3]	log2 fold change (dasatinib)	log2 fold change [4]	log2 fold change [5]	log2 fold change (quisinostat)	log2 fold change (tipifarnib)	log2 fold change [6]	log2 fold change [7]	log2 fold change [8]
SOX11 (UniProt P35716)	inactive: -0.118	–	inactive: 0.006	–	–	–	–	inactive: -0.243	–	–	–	–	–	–	–	inactive: -0.011	–	inactive: -0.154	inactive: -0.217	–
SNRPD2 (UniProt K7EJB5)	inactive: 0.005	–	inactive: -0.202	–	inactive: 0.014	–	inactive: 0.051	inactive: 0.105	–	–	inactive: -0.081	inactive: 0.005	inactive: -0.026	inactive: -0.094	inactive: -0.084	inactive: -0.267	inactive: -0.075	inactive: -0.082	inactive: 0.044	inactive: 0
